Reference: patent publication US11639412B2, “Acute care cover for severe injuries” (priority 2016, dated 2023)
For at least one compound, name, drawing or mass did not settle the structure.

Tested on: Staphylococcus aureus
Experiment: Zone of inhibition assay
Type: cell-based
Settings: 37° C. for 72 hours
Method: Zone-of-inhibition and Drug Delivery Assay—Antimicrobial activity of ciprofloxacin- and tetracycline-loaded polyHIPEs was assessed through a zone of inhibition assay. […] The polyHIPE discs were incubated in the drug solutions at room temperature overnight. Prior to being frozen and lyophilized, the discs were briefly rinsed with methanol. A plate of Staphylococcus aureus was streaked using cells from frozen stocks; single colonies, selected from the plate, were then used to inoculate 10 mL of liquid LB media, which were cultured overnight at 37° C. The starter cultures were diluted with fresh LB to an OD600 of approximately 1.1 before being further diluted in 1:5 ratio of culture to fresh, liquid LB media. To inoculate LB agar plates, 250 μL of the diluted culture was spread evenly across the surface of the plates, which were then incubated for 30 minutes at 37° C. The LB plates were then removed from the incubator and divided into 4 quadrants with the drug-loaded or control polyHIPE discs placed in the center of each quadrant. The plates were then returned to the incubator and cultured for approximately 24 hours. Following the 24-hour period of incubation, the plates were removed, photographed next to a standard ruler and the polyHIPEs transferred to a freshly inoculated plate which was incubated for another 24 hours. […]

Structure (SMILES): CN(C)[C@@H]1C(O)=C(C(N)=O)C(=O)[C@@]2(O)C(O)=C3C(=O)c4c(O)cccc4[C@@](C)(O)[C@H]3C[C@@H]12 [tetracycline]
- antibiotic activity within polyHIPEs after incubation: not diminished
